Test results reported in the supplement of paper PMC10849652.
Some of the results follow.

Protein sequences, listed by entry. Tags and fused reporters are not part of them. Lines headed by an entry give the natural chain unless they say otherwise; changes in a name come on top.
UniProt Q86XR7, whole entry, looked up: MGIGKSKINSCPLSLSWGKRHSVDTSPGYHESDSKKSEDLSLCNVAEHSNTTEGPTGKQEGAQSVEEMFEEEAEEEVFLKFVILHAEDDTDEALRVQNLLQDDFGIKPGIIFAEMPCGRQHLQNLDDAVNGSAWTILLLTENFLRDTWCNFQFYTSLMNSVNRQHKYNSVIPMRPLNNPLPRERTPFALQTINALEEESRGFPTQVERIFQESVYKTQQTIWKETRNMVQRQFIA
UniProt P29401: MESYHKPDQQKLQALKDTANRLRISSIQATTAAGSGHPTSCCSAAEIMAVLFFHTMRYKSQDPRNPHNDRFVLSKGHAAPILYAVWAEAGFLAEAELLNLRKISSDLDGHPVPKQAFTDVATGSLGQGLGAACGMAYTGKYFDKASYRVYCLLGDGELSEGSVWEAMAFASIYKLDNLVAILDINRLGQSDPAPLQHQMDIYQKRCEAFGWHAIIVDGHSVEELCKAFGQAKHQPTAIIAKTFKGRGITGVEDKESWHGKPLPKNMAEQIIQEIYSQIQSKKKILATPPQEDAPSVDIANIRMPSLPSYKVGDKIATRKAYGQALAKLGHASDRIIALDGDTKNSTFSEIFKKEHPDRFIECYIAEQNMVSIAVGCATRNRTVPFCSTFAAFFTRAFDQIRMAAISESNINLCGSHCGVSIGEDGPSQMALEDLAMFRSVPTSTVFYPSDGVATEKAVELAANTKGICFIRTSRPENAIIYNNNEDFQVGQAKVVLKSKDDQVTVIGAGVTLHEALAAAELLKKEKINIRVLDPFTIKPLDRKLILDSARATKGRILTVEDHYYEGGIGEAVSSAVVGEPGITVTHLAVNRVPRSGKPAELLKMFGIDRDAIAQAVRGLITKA
UniProt Q9NPL8: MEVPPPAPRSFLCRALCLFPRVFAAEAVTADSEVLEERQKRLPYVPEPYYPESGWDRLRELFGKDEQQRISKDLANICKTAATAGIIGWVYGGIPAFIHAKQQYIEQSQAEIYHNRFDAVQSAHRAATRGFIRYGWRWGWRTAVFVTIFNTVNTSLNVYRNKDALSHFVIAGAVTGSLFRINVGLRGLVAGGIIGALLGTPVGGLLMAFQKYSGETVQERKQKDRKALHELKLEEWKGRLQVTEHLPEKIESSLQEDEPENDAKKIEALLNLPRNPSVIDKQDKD
UniProt Q9Y5J7: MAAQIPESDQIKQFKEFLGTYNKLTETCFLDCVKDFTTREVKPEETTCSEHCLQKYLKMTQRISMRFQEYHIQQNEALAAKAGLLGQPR
UniProt Q9Y4C2: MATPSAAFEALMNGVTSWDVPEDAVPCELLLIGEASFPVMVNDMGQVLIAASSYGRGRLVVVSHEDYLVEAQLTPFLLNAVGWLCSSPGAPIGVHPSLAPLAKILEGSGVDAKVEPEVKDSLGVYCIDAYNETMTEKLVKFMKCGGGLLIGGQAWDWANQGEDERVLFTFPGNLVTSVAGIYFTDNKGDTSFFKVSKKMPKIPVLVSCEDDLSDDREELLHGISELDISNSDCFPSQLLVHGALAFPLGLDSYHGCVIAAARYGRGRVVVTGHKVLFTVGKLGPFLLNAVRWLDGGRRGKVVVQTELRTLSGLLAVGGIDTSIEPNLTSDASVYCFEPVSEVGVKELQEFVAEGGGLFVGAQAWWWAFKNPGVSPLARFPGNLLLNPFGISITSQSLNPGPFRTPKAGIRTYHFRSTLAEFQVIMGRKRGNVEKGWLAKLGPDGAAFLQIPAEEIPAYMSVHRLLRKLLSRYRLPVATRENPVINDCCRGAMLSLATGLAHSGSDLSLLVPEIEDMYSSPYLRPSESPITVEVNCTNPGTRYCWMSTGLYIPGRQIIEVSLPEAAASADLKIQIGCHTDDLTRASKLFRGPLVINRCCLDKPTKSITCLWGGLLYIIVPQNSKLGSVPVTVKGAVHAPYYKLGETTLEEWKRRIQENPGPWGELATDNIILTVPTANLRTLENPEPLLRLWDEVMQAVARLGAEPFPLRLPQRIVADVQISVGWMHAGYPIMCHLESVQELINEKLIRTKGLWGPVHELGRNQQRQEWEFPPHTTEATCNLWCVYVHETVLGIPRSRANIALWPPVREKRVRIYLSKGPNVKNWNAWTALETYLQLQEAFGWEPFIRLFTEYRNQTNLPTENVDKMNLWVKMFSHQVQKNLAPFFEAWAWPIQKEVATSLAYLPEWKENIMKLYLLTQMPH
UniProt P62380: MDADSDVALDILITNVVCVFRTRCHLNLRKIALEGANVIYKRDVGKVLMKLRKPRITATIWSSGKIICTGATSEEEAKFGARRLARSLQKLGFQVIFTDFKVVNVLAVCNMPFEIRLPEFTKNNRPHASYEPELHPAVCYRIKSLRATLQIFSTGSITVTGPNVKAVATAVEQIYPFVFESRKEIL
UniProt Q9UGI8: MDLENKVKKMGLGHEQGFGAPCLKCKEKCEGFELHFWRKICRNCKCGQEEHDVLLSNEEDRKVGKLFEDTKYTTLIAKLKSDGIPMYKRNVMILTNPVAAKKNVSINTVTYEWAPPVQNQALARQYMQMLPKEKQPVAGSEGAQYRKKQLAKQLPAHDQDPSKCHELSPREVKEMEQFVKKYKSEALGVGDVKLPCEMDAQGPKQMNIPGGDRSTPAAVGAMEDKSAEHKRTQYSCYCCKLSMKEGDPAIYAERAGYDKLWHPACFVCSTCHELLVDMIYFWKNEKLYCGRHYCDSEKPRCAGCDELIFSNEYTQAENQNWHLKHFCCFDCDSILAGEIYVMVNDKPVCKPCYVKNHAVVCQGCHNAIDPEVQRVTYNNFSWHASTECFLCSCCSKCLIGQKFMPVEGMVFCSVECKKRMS
UniProt Q15813: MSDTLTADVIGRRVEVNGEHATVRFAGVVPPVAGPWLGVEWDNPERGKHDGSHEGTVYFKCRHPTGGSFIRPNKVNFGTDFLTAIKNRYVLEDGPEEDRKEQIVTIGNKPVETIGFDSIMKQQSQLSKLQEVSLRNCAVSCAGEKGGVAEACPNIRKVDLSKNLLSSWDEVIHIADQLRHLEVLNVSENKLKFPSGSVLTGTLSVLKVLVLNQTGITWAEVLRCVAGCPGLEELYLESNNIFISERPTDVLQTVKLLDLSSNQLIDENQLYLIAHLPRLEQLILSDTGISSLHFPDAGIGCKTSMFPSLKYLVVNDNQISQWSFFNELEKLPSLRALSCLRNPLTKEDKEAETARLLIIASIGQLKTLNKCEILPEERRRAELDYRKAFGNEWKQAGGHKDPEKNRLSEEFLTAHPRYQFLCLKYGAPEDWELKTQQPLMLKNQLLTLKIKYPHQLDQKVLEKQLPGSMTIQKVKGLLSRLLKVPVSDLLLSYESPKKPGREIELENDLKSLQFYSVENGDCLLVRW
UniProt Q07157: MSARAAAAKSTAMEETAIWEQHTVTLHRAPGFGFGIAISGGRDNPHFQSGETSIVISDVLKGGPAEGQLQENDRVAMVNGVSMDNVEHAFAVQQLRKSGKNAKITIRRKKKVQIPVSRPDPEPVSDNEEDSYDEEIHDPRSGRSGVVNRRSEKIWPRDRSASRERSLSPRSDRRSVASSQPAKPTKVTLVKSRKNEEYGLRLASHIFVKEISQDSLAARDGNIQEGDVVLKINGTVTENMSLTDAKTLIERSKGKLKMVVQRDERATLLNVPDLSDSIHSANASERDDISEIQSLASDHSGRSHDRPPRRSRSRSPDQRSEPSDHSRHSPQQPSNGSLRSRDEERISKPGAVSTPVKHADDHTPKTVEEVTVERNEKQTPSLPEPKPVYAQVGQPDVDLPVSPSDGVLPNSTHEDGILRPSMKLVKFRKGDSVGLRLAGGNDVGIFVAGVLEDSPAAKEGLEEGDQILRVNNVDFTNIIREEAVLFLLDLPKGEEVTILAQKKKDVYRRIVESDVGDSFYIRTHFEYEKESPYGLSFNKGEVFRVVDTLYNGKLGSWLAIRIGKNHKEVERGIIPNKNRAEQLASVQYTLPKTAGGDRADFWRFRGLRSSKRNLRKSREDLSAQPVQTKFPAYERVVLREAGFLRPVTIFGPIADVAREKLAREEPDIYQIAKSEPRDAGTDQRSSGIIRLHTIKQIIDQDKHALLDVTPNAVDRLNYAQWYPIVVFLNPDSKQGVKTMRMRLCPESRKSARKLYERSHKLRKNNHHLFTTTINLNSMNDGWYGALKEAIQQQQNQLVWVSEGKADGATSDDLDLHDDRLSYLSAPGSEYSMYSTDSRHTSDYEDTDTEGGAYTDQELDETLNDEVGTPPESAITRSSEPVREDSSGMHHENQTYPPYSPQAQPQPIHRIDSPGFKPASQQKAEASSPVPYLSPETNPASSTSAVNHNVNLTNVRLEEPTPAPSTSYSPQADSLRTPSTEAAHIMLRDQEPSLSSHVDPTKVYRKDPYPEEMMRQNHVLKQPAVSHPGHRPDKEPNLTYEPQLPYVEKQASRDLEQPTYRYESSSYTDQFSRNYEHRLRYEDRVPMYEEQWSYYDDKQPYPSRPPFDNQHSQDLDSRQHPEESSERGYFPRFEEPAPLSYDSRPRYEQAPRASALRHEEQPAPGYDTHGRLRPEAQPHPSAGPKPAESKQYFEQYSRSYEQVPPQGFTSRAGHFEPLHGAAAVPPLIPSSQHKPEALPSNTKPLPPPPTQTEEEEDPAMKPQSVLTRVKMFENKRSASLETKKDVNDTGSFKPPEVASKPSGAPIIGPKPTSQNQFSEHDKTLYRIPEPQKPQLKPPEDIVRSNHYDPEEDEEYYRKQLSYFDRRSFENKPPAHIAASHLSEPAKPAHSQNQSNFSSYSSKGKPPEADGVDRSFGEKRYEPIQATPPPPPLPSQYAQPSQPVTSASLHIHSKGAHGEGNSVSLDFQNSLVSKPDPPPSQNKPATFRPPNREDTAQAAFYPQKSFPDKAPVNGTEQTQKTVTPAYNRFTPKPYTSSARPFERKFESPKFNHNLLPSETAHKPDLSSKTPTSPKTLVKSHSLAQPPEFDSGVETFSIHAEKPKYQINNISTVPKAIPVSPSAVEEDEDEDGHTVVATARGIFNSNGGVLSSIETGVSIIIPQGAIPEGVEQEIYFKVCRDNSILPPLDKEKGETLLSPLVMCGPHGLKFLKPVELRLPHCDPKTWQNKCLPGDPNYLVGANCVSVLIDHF
UniProt O60220: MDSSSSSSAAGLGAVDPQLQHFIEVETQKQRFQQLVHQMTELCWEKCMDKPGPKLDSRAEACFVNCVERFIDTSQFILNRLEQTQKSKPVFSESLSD
UniProt Q03167: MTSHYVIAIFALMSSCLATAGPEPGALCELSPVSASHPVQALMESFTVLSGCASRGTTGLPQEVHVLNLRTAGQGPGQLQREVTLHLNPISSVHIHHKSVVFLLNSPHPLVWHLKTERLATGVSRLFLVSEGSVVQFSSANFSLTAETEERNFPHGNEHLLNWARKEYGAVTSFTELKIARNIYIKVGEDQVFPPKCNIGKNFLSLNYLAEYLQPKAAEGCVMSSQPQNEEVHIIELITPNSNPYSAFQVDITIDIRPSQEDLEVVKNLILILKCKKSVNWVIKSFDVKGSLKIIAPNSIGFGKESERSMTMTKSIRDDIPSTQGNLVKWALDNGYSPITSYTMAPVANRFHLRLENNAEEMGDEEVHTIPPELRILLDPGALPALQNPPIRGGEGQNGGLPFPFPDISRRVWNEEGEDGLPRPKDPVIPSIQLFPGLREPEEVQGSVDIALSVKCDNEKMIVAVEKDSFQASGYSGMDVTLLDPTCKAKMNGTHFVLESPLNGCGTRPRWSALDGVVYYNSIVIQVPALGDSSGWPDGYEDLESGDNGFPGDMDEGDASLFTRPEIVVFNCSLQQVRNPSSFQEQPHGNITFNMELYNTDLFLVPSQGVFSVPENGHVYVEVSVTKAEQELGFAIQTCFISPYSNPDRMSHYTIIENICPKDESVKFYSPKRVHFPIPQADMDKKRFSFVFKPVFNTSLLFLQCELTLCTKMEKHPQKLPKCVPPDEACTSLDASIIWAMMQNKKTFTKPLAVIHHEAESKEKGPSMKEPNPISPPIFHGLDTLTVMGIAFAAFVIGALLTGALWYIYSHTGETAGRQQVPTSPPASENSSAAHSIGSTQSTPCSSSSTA
UniProt Q99426: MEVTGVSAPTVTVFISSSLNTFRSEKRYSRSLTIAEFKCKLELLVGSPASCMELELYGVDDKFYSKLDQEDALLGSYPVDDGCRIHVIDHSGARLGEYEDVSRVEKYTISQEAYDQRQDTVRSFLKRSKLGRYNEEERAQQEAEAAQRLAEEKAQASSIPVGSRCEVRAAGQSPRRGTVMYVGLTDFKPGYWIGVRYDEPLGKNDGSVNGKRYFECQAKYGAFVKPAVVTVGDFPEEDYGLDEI
UniProt Q96BS2: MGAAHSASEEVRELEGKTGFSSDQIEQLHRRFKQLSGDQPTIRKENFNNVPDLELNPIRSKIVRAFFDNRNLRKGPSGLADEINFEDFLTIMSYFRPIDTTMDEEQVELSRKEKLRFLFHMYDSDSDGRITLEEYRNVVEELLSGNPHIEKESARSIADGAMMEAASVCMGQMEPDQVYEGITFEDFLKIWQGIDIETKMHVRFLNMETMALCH

Tests used:
Assay in all cases: log2 fold change, soluble protein after heating vs DMSO (PISA); higher = thermal stabilisation; K562 cells, 10 uM, 30 min; active = over 0.2 and 3.5 SD of the protein, either way, in both replicates (recomputed)
[1] = compound: CC1=C(C=C(C=C1)NC(=O)C2=CC(=CC=C2)C(C)(C)C#N)NC3=CC4=C(C=C3)N=CN(C4=O)C
How it was run: (§1)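 Soluble protein was defined as the supernatant after 21,000xg for 90 min. It came from K562 cells at 2×10^6 cells/mL given 10 μM compound for 30 min, heated in aliquots for 3 min across 48°C-58°C, pooled, and extracted in PBS with 0.5% NP-40 at 4°C, and was quantified by TMTpro 16plex LC-MS/MS with equalised channel sums. Thermal stability against control samples, from duplicates, is reported as log2 fold change.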

[2] = compound: CC1=C(C=C(C=C1)NC(=O)C2=CC(=CC=C2)N(C)C)NC(=O)C3=CC=C(C=C3)O
How it was run: as §1

[3] = compound: CC1=CC=C(C=C1)SC2=C3C=C(SC3=CN=C2)C(=O)N
How it was run: as §1

[4] = compound: CC1=NC(=CC=C1)C2=C(N=C(N2)C(C)(C)C)C3=CC4=NC=CN=C4C=C3
How it was run: as §1

Nexturastat A = compound: CCCCN(Cc1ccc(C(=O)NO)cc1)C(=O)Nc1ccccc1 [Nexturastat A]
How it was run: as §1

vemurafenib = compound: CCCS(=O)(=O)Nc1ccc(F)c(C(=O)c2c[nH]c3ncc(-c4ccc(Cl)cc4)cc23)c1F [vemurafenib]
How it was run: as §1

[5] = compound: CCCS(=O)(=O)Nc1ccc(F)c(C(=O)c2c[nH]c3ncc(Cl)cc23)c1F
How it was run: as §1

[6] = compound: CCCc1cc(C)[nH]c(=O)c1CNC(=O)c1cc(-c2ccnc(N3CCN(C)CC3)c2)cc2c1cnn2C(C)C
How it was run: as §1

givinostat = compound: CCN(CC)Cc1ccc2cc(COC(=O)Nc3ccc(C(=O)NO)cc3)ccc2c1 [givinostat]
How it was run: as §1

barasertib = compound: CCN(CCCOc1ccc2c(Nc3cc(CC(=O)Nc4cccc(F)c4)[nH]n3)ncnc2c1)CCOP(=O)(O)O [barasertib]
How it was run: as §1

[7] = compound: CC[C@@H]1C(=O)N(C)c2cnc(Nc3ccc(C(=O)NC4CCN(C)CC4)cc3OC)nc2N1C1CCCC1
How it was run: as §1

volasertib = compound: CC[C@@H]1C(=O)N(C)c2cnc(Nc3ccc(C(=O)N[C@H]4CC[C@H](N5CCN(CC6CC6)CC5)CC4)cc3OC)nc2N1C(C)C [volasertib]
How it was run: as §1

[8] = compound: CC[C@H](C)N1C=C(C2=C(C=C(C=C21)C3=CN=C(C=C3)N4CCNCC4)C(=O)NCC5=C(C=C(NC5=O)C)C)C
How it was run: as §1

epoxomicin = compound: CC[C@H](C)[C@@H](C(=O)N[C@@H]([C@@H](C)O)C(=O)N[C@@H](CC(C)C)C(=O)[C@]1(CO1)C)NC(=O)[C@H]([C@@H](C)CC)N(C)C(=O)C [epoxomicin]
How it was run: as §1

[9] = compound: CCn1c(C(=O)N(C2CC2)C2CC2)cc2c3c(ncn3C)c(Nc3cc(C)n(C)n3)nc21
How it was run: as §1

[10] = compound: CCn1cc(-c2ccnc3[nH]c(-c4cccc(CN(C)C)c4)cc23)c(-c2ccc(NC(=O)N(C)C)cc2)n1
How it was run: as §1

[11] = compound: CN(C)CC(=O)Nc1ccc2[nH]c(=O)c3ccccc3c2c1
How it was run: as §1

rosiglitazone = compound: CN(CCOC1=CC=C(C=C1)C[C@H]2C(=O)NC(=O)S2)C3=CC=CC=N3 (racemic) [rosiglitazone]
How it was run: as §1

[12] = compound: CN1C2=C(C3=C1C(=O)N(N=C3)CC4=CC(=CC=C4)N)SC(=C2)S(=O)C
How it was run: as §1

[13] = compound: CN1CCC(CNc2ccc3ncc(-c4cccc(OC(F)(F)F)c4)n3n2)CC1
How it was run: as §1

Target	log2 fold change [1]	log2 fold change [2]	log2 fold change [3]	log2 fold change [4]	log2 fold change (Nexturastat A)	log2 fold change (vemurafenib)	log2 fold change [5]	log2 fold change [6]	log2 fold change (givinostat)	log2 fold change (barasertib)	log2 fold change [7]	log2 fold change (volasertib)	log2 fold change [8]	log2 fold change (epoxomicin)	log2 fold change [9]	log2 fold change [10]	log2 fold change [11]	log2 fold change (rosiglitazone)	log2 fold change [12]	log2 fold change [13]
TICAM2 isoform 2 (UniProt Q86XR7)	inactive: 0.022	inactive: -0.028	inactive: 0.02	inactive: 0.028	inactive: -0.069	inactive: 0.035	inactive: -0.01	inactive: 0.004	inactive: 0.007	inactive: 0.002	inactive: 0.008	inactive: 0.029	inactive: -0.011	inactive: 0.152	inactive: 0.059	inactive: -0.051	inactive: 0.031	inactive: 0.004	inactive: -0.041	inactive: -0.031
TBL3 (UniProt Q12788)	inactive: 0.028	inactive: -0.03	inactive: -0.024	inactive: -0.016	inactive: 0.246	inactive: -0.011	inactive: 0	inactive: 0.054	inactive: -0.038	inactive: -0.038	inactive: 0.099	inactive: 0.018	inactive: -0.049	inactive: -0.116	inactive: -0.094	inactive: 0.036	inactive: -0.045	inactive: 0.001	inactive: 0.14	inactive: 0.216
TKT isoform 2 (UniProt P29401)	inactive: 0.001	inactive: 0.021	inactive: 0.023	inactive: 0.019	inactive: -0.073	inactive: 0.032	inactive: -0.015	inactive: 0.051	inactive: -0.016	inactive: 0	inactive: -0.049	inactive: 0.049	inactive: -0.037	inactive: 0	inactive: 0.021	inactive: 0.073	inactive: -0.001	inactive: 0	inactive: -0.049	inactive: 0.017
TIMMDC1 (UniProt Q9NPL8)	inactive: -0.015	inactive: -0.061	inactive: 0.09	inactive: 0.023	inactive: 0.008	inactive: -0.072	inactive: -0.029	inactive: 0.041	inactive: -0.002	inactive: -0.025	inactive: -0.015	inactive: 0.022	inactive: 0.008	inactive: -0.002	inactive: 0.021	inactive: 0.002	inactive: -0.038	inactive: 0.004	inactive: -0.006	inactive: 0.004
TIMM9 (UniProt Q9Y5J7)	inactive: 0.062	inactive: -0.124	inactive: -0.009	inactive: 0.058	inactive: -0.051	inactive: 0.108	inactive: -0.066	inactive: -0.011	inactive: -0.084	inactive: 0.051	inactive: 0.071	inactive: -0.012	inactive: -0.016	inactive: 0.266	inactive: 0.019	inactive: 0.062	inactive: -0.008	inactive: 0.021	inactive: -0.076	inactive: 0.219
THBS1 (UniProt P07996)	inactive: -0.08	inactive: 0.256	inactive: 0.048	inactive: 0.137	inactive: 0.012	inactive: 0.109	inactive: -0.084	inactive: -0.191	inactive: -0.09	inactive: 0.015	inactive: -0.108	inactive: -0.004	inactive: -0.135	inactive: -0.328	inactive: -0.038	inactive: 0.009	inactive: -0.06	inactive: 0.13	inactive: 0.268	inactive: 0.039
TCAF1 (UniProt Q9Y4C2)	inactive: 0.001	inactive: -0.005	inactive: -0.044	inactive: -0.007	inactive: 0.116	inactive: 0.023	inactive: -0.015	inactive: 0.043	inactive: 0.042	inactive: 0.017	inactive: 0.024	inactive: -0.082	inactive: 0.078	inactive: 0.057	inactive: -0.047	inactive: -0.091	inactive: -0.012	inactive: 0.076	inactive: 0.07	inactive: -0.147
TBPL1 (UniProt P62380)	inactive: 0.043	inactive: -0.037	inactive: 0.113	inactive: 0.032	inactive: -0.124	inactive: 0.101	inactive: 0.101	inactive: 0.005	inactive: -0.04	inactive: 0.067	inactive: -0.094	inactive: -0.193	inactive: 0.02	inactive: -0.055	inactive: -0.055	inactive: -0.031	inactive: 0.056	inactive: 0.076	inactive: -0.105	inactive: 0.041
TES (UniProt Q9UGI8)	inactive: 0.003	inactive: 0.004	inactive: 0.012	inactive: 0.016	inactive: -0.022	inactive: 0.023	inactive: 0.014	inactive: -0.004	inactive: -0.058	inactive: 0.023	inactive: -0.013	inactive: -0.053	inactive: 0.019	inactive: 0.057	inactive: 0.016	inactive: -0.065	inactive: -0.024	inactive: 0.022	inactive: -0.078	inactive: -0.036
TBCE (UniProt Q15813)	inactive: -0.09	inactive: -0.007	inactive: 0.054	inactive: -0.091	inactive: 0.179	inactive: 0.038	inactive: 0.063	inactive: 0.108	inactive: 0.128	inactive: 0.088	inactive: -0.005	inactive: -0.254	inactive: 0.133	inactive: -0.062	inactive: -0.045	inactive: 0.028	inactive: 0.109	inactive: 0.037	inactive: 0.129	inactive: -0.067
TJP1 (UniProt Q07157)	inactive: 0.03	inactive: -0.039	inactive: 0.011	inactive: -0.012	inactive: -0.005	inactive: 0.041	inactive: 0.065	inactive: -0.021	inactive: 0.102	inactive: 0.033	inactive: -0.023	inactive: -0.166	inactive: 0.022	inactive: 0.007	–	inactive: -0.052	inactive: 0.012	–	inactive: 0	inactive: -0.071
TFR2 (UniProt Q9UP52)	inactive: 0.012	inactive: -0.018	inactive: -0.012	inactive: -0.036	inactive: -0.031	inactive: -0.018	inactive: -0.003	inactive: -0.029	inactive: -0.083	inactive: 0.01	active: -0.483	active: -0.382	inactive: -0.045	inactive: 0.01	–	inactive: 0.038	inactive: -0.035	–	inactive: -0.003	inactive: -0.22
TIMM8A (UniProt O60220)	inactive: -0.031	inactive: -0.093	inactive: 0.018	inactive: 0.066	inactive: 0.025	inactive: 0.059	inactive: -0.018	inactive: 0.071	inactive: 0.009	inactive: -0.027	inactive: -0.077	inactive: -0.024	inactive: -0.03	inactive: 0.358	inactive: 0.061	inactive: 0.093	inactive: 0.023	inactive: -0.014	inactive: -0.05	inactive: 0.281
TGFBR3 (UniProt Q03167)	inactive: -0.007	inactive: -0.064	inactive: 0.042	inactive: -0.028	inactive: 0.064	inactive: 0.104	inactive: 0.013	inactive: -0.014	inactive: 0.034	inactive: -0.02	inactive: 0.05	inactive: -0.075	inactive: -0.063	inactive: -0.015	inactive: 0.073	inactive: -0.007	inactive: 0.009	inactive: 0.01	inactive: 0.03	inactive: 0.015
TBCB (UniProt Q99426)	inactive: 0.033	inactive: -0.017	inactive: 0.026	inactive: 0.023	inactive: 0.013	inactive: 0.034	inactive: 0.056	inactive: -0.005	inactive: 0.021	inactive: 0.041	inactive: -0.064	inactive: -0.133	inactive: 0.046	inactive: 0.051	inactive: 0.011	inactive: -0.015	inactive: 0.046	inactive: 0.015	inactive: -0.02	inactive: -0.126
TESC (UniProt Q96BS2)	inactive: -0.009	inactive: -0.028	inactive: -0.008	inactive: -0.039	inactive: -0.032	inactive: 0.045	inactive: 0.019	inactive: -0.021	inactive: 0.002	inactive: 0.026	inactive: -0.062	inactive: -0.046	inactive: 0.054	inactive: 0.123	inactive: 0.068	inactive: 0	inactive: -0.028	inactive: 0.09	inactive: -0.067	inactive: -0.08

Limited to log2 fold change (givinostat), log2 fold change [12] and log2 fold change [3], for some of the entries so far:
Target	log2 fold change (givinostat)	log2 fold change [12]	log2 fold change [3]
TIMMDC1 (UniProt Q9NPL8)	inactive: -0.002	inactive: -0.006	inactive: 0.09
TIMM9 (UniProt Q9Y5J7)	inactive: -0.084	inactive: -0.076	inactive: -0.009
